# From PubChem BioAssay AID493014 (National Center for Advancing Translational Sciences (NCATS), 2011)
# Among all 340,000 compounds or so, about 170 (0.05%) were called active. Inconclusive means that the source gave no clear call. Such entries were picked first, then a sample of the others. The call rests on the fitted dose curve; in most records, active means well fitted inhibition curve with a large enough effect in the signal ratio, with a control signal flat (not every such curve was filed as active); inconclusive means small, poorly fitted or top-dose-only effect, or effect the other way, or a change in a side signal; inactive means flat fitted curve, though single readings scatter; the % refers to the signal ratio. Potencies beside an inconclusive call are fits to weak or partial responses and may not hold up.
# Experiment: qHTS Assay to Find Inhibitors of Chronic Active B-Cell Receptor Signaling;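 on activity change, negative = inhibition: plate controls were basal doxycycline-induced cells for no effect and cells given 10 µM MG132 for full effect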
# Settings: ABC-DLBCL IkBa-CBG/CBR reporter, luminescence ratio (green luciferase fused to IkBa over red control in TMD8 lymphoma cells), 4 h; activity change, negative = inhibition: at 46.1 µM (top of the series) unless noted
# Summary of the method: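 TMD8 ABC-DLBCL cells carrying doxycycline-inducible green luciferase fused to IkappaBalpha plus unfused red luciferase were exposed to compounds (up to 46 uM) for 4 hrs at 37C. Activity came from the overlap-corrected green/red luminescence ratio.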
# Potency means the concentration at half of the fitted maximal effect.
Structure (SMILES),"activity change, negative = inhibition",Potency
O=C(NCC1CCN(c2ccc(S(=O)(=O)N3CCOCC3)cc2)CC1)c1cccc(Cl)c1,inactive: 0.586%,–
CN(C)c1nc(N)nc(CSc2nnnn2-c2ccc(C(=O)O)cc2)n1,inconclusive: 8.07%,–
COc1ccc(/C=C(/NC(=O)c2ccccc2)C(=O)N/N=C/c2cccs2)cc1OC,inconclusive: -16.6%,–
CCC(=O)Nc1cc(C(=O)OCC(=O)c2ccc(Cl)cc2Cl)ccc1C,inactive: 1.73%,–
O=C(CSc1nc(O)cc(=O)n1-c1ccccc1)Nc1ccc(Br)cn1,inconclusive: 9.67%,–
COc1ccc(CNC(=O)C2CCCN(S(=O)(=O)c3ccc(-n4cnnn4)cc3)C2)cc1 (stereo not given),inactive: -0.27%,–
O=C1C=C(O)c2cccc(O)c2C1=O,inconclusive: -8.17%,–
COc1ccc(O)c(C(=O)c2cc(C#N)c(=O)n(-c3ccc(Cl)cc3)c2)c1,inactive: -8.72%,–
O=c1cc(CSc2nc(NCc3ccccc3)c3ccccc3n2)nc2ccc(Cl)cn12,inactive: 0.473%,–
O=[N+]([O-])c1ccccc1NC(=S)N/N=C/c1ccc(O)c(O)c1,–,"inconclusive: 1.26 µM [falling, full curve, poor fit]"
O=C(CN1c2ccccc2Sc2ccccc21)NNC(=O)Nc1cccc(Cl)c1,–,"inconclusive: 35.5 µM [falling, single point]"
NC(=O)COc1ccccc1/C=C1/SC(=O)N(CC(=O)N2CCc3ccccc3C2)C1=O,–,"inconclusive: 20 µM [falling, partial curve]"
O=C(Nc1ccc(F)cc1)N1CCCN(c2nccc(C(F)(F)F)n2)CC1,inconclusive: -6.84%,–
Nc1cc(Cl)nc(N/N=C/c2ccccc2[N+](=O)[O-])n1,–,"inconclusive: 20 µM [falling, partial curve]"
COc1ccc(OCc2cc(C(=O)N3C[C@@H](C)O[C@@H](C)C3)no2)c(Cl)c1,inconclusive: -2.75%,–
Cc1cc(C)c(C)c(OC(=O)c2sc(Cl)nc2C)c1,inconclusive: -7%,–
Cc1ccc(NC(=O)c2cc([N+](=O)[O-])ccc2NCc2cccnc2)cc1Cl,–,"inconclusive: 3.55 µM [falling, partial curve, poor fit]"
CCCNC(=O)COC(=O)C1CCN(S(=O)(=O)c2ccc3c(c2)OCCO3)CC1,inconclusive: 10.4%,–
Cc1nnc2n1N=CC=C(c1ccccc1)S2,–,"inconclusive: 29.1 µM [falling, single point]"
CC(C)c1ccc(NC(=O)c2ccc(F)c(S(=O)(=O)N3CCc4ccccc4C3)c2)cc1,inactive: 13.4%,–

# One compound at a time, as listed above. Order of values: activity change, negative = inhibition	Potency
# `O=C1C=C(O)c2cccc(O)c2C1=O` as listed: inconclusive: -8.17%	–
# `CC(C)c1ccc(NC(=O)c2ccc(F)c(S(=O)(=O)N3CCc4ccccc4C3)c2)cc1` as listed: inactive: 13.4%	–

# Carrying on:

Structure (SMILES),"activity change, negative = inhibition",Potency
CS(=O)(=O)N1N=C(c2ccco2)CC1c1ccccc1 (stereo not given),inactive: 0.75%,–
CC(=O)c1ccc2c(c1)C1C=CCC1C(c1cc3c(cc1Br)OCO3)N2 (stereo not given),–,"inconclusive: 23.1 µM [falling, partial curve]"
O=c1oc2ccccc2c(N2CCCC2)c1CN1CCCC1,–,"inconclusive: 6.51 µM [falling, partial curve, poor fit]"
CCc1cc2c(=O)n(Cc3ccco3)c(SCC(=O)N(C)C3CCS(=O)(=O)C3)nc2s1 (stereo not given),inconclusive: -0.46%,–
O=C(c1cccn2c(=O)c3cc(Cl)ccc3nc12)N1CCN(c2ccccc2F)CC1,inconclusive: 1.73%,–
CC1CCN(c2ccc(C(=O)O)cc2NS(=O)(=O)c2ccc(Br)cc2)CC1,inconclusive: 6.82%,–
Cc1ccc(C(=O)N/C(=C\c2cccs2)C(=O)NCCCn2ccnc2)cc1,inactive: -1.05%,–
CCNc1nc(SCC(=O)Nc2ccc(Cl)c(Cl)c2)nc(N(C)C)n1,inconclusive: 15.7%,–
C=CCc1ccc(OCCOCCNCCCC)c(OC)c1,–,"inconclusive: 29.1 µM [falling, single point]"
CCCCOc1ccc(C(=O)N2CCCC2)cc1,inconclusive: 0%,–
CC1(CCc2ccccc2)NC(=S)N(c2ccccc2)N1 (stereo not given),inactive: 4.82%,–
O=C1[C@@H]2Cc3c([nH]c4ccccc34)C(c3ccccc3)N2C(=O)CN1C1CC1 (stereo not given in full),inactive: -2.21%,–
CC(C)C(NC(=O)C(c1ccccc1)c1ccccc1)c1nc2ccccc2[nH]1 (stereo not given),inconclusive: 0.104%,–
COc1ccc(C)cc1Nc1n[n+](-c2ccccc2)c(-c2c(Cl)cccc2Cl)s1,–,"inconclusive: 22.4 µM [falling, single point]"
C/C(CC(=O)Nc1cc(C)ccn1)=N\NC(=O)c1ccc(C)cc1,inconclusive: -1.18%,–
Clc1ccc(CSc2nncn2-c2ccccn2)cc1,inconclusive: 14.7%,–
Cc1cc(C)nc(SCc2ccc(C(=O)NN=C3CCCC3)cc2)n1,–,"inconclusive: 11.2 µM [falling, partial curve]"
CCc1ccc(NC(=O)N2CCN(c3ccc(F)cc3)CC2)cc1,inconclusive: 10.2%,–
COc1ccc(O)c(/C=N/NC(=O)c2cccc(N3CCCC3=O)c2)c1,inactive: 1.58%,–
CCOc1ccccc1NC(=O)CCC(=O)Nc1ccccc1OCC,–,"inconclusive: 1.64 µM [falling, partial curve, poor fit]"
